Results published in ChEMBL document CHEMBL1135942, “Synthesis of 5,6-dihydro-11H-benzo[5,6]-cyclohepta[1,2-b]pyridin-11-ylidene)-1-piperidine-N-cyanoguanidine derivatives as inhibitors of ras farnesyl protein transferase” (Bioorg Med Chem Lett, 2002).
pIC50: −log10 of the molar value.

Target: Protein farnesyltransferase (Homo sapiens, UniProt P49354+P49356)
Assay: FPT inhibitory activity was determined by the ability to inhibit the transfer of [3H]farnesyl from farnesyl pyrophosphate to H-ras-CLVS
Type: protein-complex assay

Compound `Clc1ccc2c(c1)CCc1cccnc1C2=C1CCNCC1` [DESLORATADINE] has a pIC50 of less than 4.19.
